# Data taken from US6605431.
# For at least one entry, the source does not settle the construct or the ends of the probe.
# Test system: RNA polymerase holoenzyme (sigma70) (Escherichia coli)
# Assay: SELEX
# Details: 13 rounds; purified native protein
row,Sequence,selection result
1,GACCTCAGGAATTCCGCGGTCGACTGCAGTGGTACAAAAAACACTTGTCAGGCCGGAATAACTCCCTATAATGCGCCACC (double strand) [selected proximal SEQ 35],selected
2,GACCTCAGGAATTCCGCGGTCGACTGCAGTGGTAAAAAAAATACTTGTCAGGCCGGAATAACTCCCTATAATGCGCCACC (double strand) [selected proximal SEQ 36],selected
3,GACCTCAGGAATTCCGCGGTCGACTGCAGTGGTAAAAATAGTACTTGTCAGGCCGGAATAACTCCCTATAATGCGCCACC (double strand) [selected proximal SEQ 34],selected
4,GACCTCAGGAATTCCGCGGTCGACTGCAGTGGTAAAAAAAATGCTTGTCAGGCCGGAATAACTCCCTATAATGCGCCACC (double strand) [selected proximal SEQ 31],selected

# Same assay, conditions: in vivo more active than wild type; purified native protein
row,Sequence,selection result
1,GACGTCAGGAATTCCGCGGTCGAAAAATATTTTTGATAAAGTACTTGTCAGGCCGGAATAACTCCCTATAATGCGCCACC (double strand) [selected UP SEQ 68],selected
2,GACGTCAGGAATTCCGCGGTCTAAAAATTTTTTTTGAAAAGGGCTTGTCAGGCCGGAATAACTCCCTATAATGCGCCACC (double strand) [selected UP SEQ 42],selected
3,GACGTCAGGAATTCCGCGGTCAGATTTTTTTTTTGTAAAAGTGCTTGTCAGGCCGGAATAACTCCCTATAATGCGCCACC (double strand) [selected UP SEQ 66],selected
4,GACGTCAGGAATTCCGCGGTCTTAAATTTTTTTTCGTAAACCCCTTGTCAGGCCGGAATAACTCCCTATAATGCGCCACC (double strand) [selected UP SEQ 49],selected
5,GACGTCAGGAATTCCGCGGTCGAAAATATATTTTTCAAAAGTACTTGTCAGGCCGGAATAACTCCCTATAATGCGCCACC (double strand) [selected UP SEQ 70],selected
6,GACGTCAGGAATTCCGCGGTCTGAAATTTATTTTGCGAAAGGGCTTGTCAGGCCGGAATAACTCCCTATAATGCGCCACC (double strand) [selected UP SEQ 63],selected
7,GACGTCAGGAATTCCGCGGTCCAAAAATATTTTTGAAAAAAGACTTGTCAGGCCGGAATAACTCCCTATAATGCGCCACC (double strand) [selected UP SEQ 43],selected
8,GACGTCAGGAATTCCGCGGTCGCAAAATAATTGTAAAAAAGTACTTGTCAGGCCGGAATAACTCCCTATAATGCGCCACC (double strand) [selected UP SEQ 59],selected
9,GACGTCAGGAATTCCGCGGTCTAAAAATATTTTTCGTTTACCCCTTGTCAGGCCGGAATAACTCCCTATAATGCGCCACC (double strand) [selected UP SEQ 54],selected
10,GACGTCAGGAATTCCGCGGTCAGAAATTTATTTTAAAAAAGGGCTTGTCAGGCCGGAATAACTCCCTATAATGCGCCACC (double strand) [selected UP SEQ 60],selected
11,GACGTCAGGAATTCCGCGGTCTGAATTTTTTTTTCGTCTACCCCTTGTCAGGCCGGAATAACTCCCTATAATGCGCCACC (double strand) [selected UP SEQ 57],selected
12,GACGTCAGGAATTCCGCGGTCAGAAAAATATTTTCGAAAACTACTTGTCAGGCCGGAATAACTCCCTATAATGCGCCACC (double strand) [selected UP SEQ 45],selected
13,GACGTCAGGAATTCCGCGGTCAGAAATTTTTTTTCGAAAAACACTTGTCAGGCCGGAATAACTCCCTATAATGCGCCACC (double strand) [selected UP SEQ 41],selected
14,GACGTCAGGAATTCCGCGGTCTAAACTTTTTTTTTCGAAAGTGCTTGTCAGGCCGGAATAACTCCCTATAATGCGCCACC (double strand) [selected UP SEQ 64],selected
15,GACGTCAGGAATTCCGCGGTCGGAAATATTTTTTCATAAACCCCTTGTCAGGCCGGAATAACTCCCTATAATGCGCCACC (double strand) [selected UP SEQ 44],selected
16,GACGTCAGGAATTCCGCGGTCAAAAATATTTTTTCGAAAAGTACTTGTCAGGCCGGAATAACTCCCTATAATGCGCCACC (double strand) [selected UP SEQ 46],selected
17,GACGTCAGGAATTCCGCGGTCTGAAAAATATTTTTGAAAACTACTTGTCAGGCCGGAATAACTCCCTATAATGCGCCACC (double strand) [selected UP SEQ 61],selected
18,GACGTCAGGAATTCCGCGGTCTTAAATTTTTTTTCATAAACCCCTTGTCAGGCCGGAATAACTCCCTATAATGCGCCACC (double strand) [selected UP SEQ 50],selected
19,GACGTCAGGAATTCCGCGGTCAAAAATATTTTTTTGAAAAGTACTTGTCAGGCCGGAATAACTCCCTATAATGCGCCACC (double strand) [selected UP SEQ 53],selected
20,GACGTCAGGAATTCCGCGGTCTGAAATATTTTTTTGAAAACCCCTTGTCAGGCCGGAATAACTCCCTATAATGCGCCACC (double strand) [selected UP SEQ 65],selected
21,GACGTCAGGAATTCCGCGGTCGCAAAAATATTTCGTCAAACCCCTTGTCAGGCCGGAATAACTCCCTATAATGCGCCACC (double strand) [selected UP SEQ 67],selected
22,GACGTCAGGAATTCCGCGGTCTAAATTTTTTTTTGCAAAAGTACTTGTCAGGCCGGAATAACTCCCTATAATGCGCCACC (double strand) [selected UP SEQ 47],selected
23,GACGTCAGGAATTCCGCGGTCTCAAAATTTTTTTTGCAAAGTACTTGTCAGGCCGGAATAACTCCCTATAATGCGCCACC (double strand) [selected UP SEQ 56],selected
24,GACGTCAGGAATTCCGCGGTCTAAACTATTTTTTCAAAAAGGACTTGTCAGGCCGGAATAACTCCCTATAATGCGCCACC (double strand) [selected UP SEQ 62],selected
25,GACGTCAGGAATTCCGCGGTCTCAAATTTTTTTTTGCAAACCCCTTGTCAGGCCGGAATAACTCCCTATAATGCGCCACC (double strand) [selected UP SEQ 51],selected

# Same assay, conditions: most active proximal subsite; set stimulates 82-170 fold in vivo; purified native protein
row,Sequence,selection result
1,GACCTCAGGAATTCCGCGGTCGACTGCAGTGGTAAAAAAAAGACTTGTCAGGCCGGAATAACTCCCTATAATGCGCCACC (double strand) [proximal subsite 4549],selected

# Same assay, conditions: purified native protein
row,Sequence,selection result
1,GACGTCAGGAATTCCGCGGTCTAAGTTTTTTTTTACTAGGAATCTTGTCAGGCCGGAATAACTCCCTATAATGCGCCACC (double strand) [selected distal SEQ 12],selected
2,GACGTCAGGAATTCCGCGGTCAGATTTATTTTTCTCTAGGAATCTTGTCAGGCCGGAATAACTCCCTATAATGCGCCACC (double strand) [selected distal SEQ 19],selected
3,GACGTCAGGAATTCCGCGGTCATAAAATATTTTATCTAGGAATCTTGTCAGGCCGGAATAACTCCCTATAATGCGCCACC (double strand) [selected distal SEQ 22],selected
4,GACGTCAGGAATTCCGCGGTCTAAAAAATATTTTACTAGGAATCTTGTCAGGCCGGAATAACTCCCTATAATGCGCCACC (double strand) [selected distal SEQ 11],selected
5,GACGTCAGGAATTCCGCGGTCGCAAATATATTTTTCTAGGAATCTTGTCAGGCCGGAATAACTCCCTATAATGCGCCACC (double strand) [selected distal SEQ 23],selected
6,GACGTCAGGAATTCCGCGGTCCCGGTTTTTTTTTACTAGGAATCTTGTCAGGCCGGAATAACTCCCTATAATGCGCCACC (double strand) [selected distal SEQ 15],selected
7,GACGTCAGGAATTCCGCGGTCACGTATTTTTTTTACTAGGAATCTTGTCAGGCCGGAATAACTCCCTATAATGCGCCACC (double strand) [selected distal SEQ 9],selected
8,GACGTCAGGAATTCCGCGGTCAAAAATTTATTTTGCTAGGAATCTTGTCAGGCCGGAATAACTCCCTATAATGCGCCACC (double strand) [selected distal SEQ 13],selected
9,GACGTCAGGAATTCCGCGGTCATATGTTTTTTTTACTAGGAATCTTGTCAGGCCGGAATAACTCCCTATAATGCGCCACC (double strand) [selected distal SEQ 18],selected
10,GACGTCAGGAATTCCGCGGTCGCATTTTTTTTTCACTAGGAATCTTGTCAGGCCGGAATAACTCCCTATAATGCGCCACC (double strand) [selected distal SEQ 7],selected
11,GACGTCAGGAATTCCGCGGTCGATAAAAATAGTTGCTAGGAATCTTGTCAGGCCGGAATAACTCCCTATAATGCGCCACC (double strand) [selected distal SEQ 20],selected
12,GACGTCAGGAATTCCGCGGTCGTATGATTTTTTTACTAGGAATCTTGTCAGGCCGGAATAACTCCCTATAATGCGCCACC (double strand) [selected distal SEQ 21],selected
13,GACGTCAGGAATTCCGCGGTCGAAAAATATTTTTGCTAGGAATCTTGTCAGGCCGGAATAACTCCCTATAATGCGCCACC (double strand) [selected distal SEQ 10],selected
14,GACGTCAGGAATTCCGCGGTCGAAAAAAATAGTTGCTAGGAATCTTGTCAGGCCGGAATAACTCCCTATAATGCGCCACC (double strand) [selected distal SEQ 17],selected
15,GACGTCAGGAATTCCGCGGTCCGAAAAAAAATTTACTAGGAATCTTGTCAGGCCGGAATAACTCCCTATAATGCGCCACC (double strand) [selected distal SEQ 14],selected
16,GACGTCAGGAATTCCGCGGTCGTAAAAATTTTTTACTAGGAATCTTGTCAGGCCGGAATAACTCCCTATAATGCGCCACC (double strand) [selected distal SEQ 8],selected

# Same assay, conditions: set stimulates 4-16 fold in vivo; purified native protein
row,Sequence,selection result
1,GACGTCAGGAATTCCGCGGTCAGAAAAATATTTTGCTAGGAATCTTGTCAGGCCGGAATAACTCCCTATAATGCGCCACC (double strand) [selected distal SEQ 6],selected
